{"source": "PubChem BioAssay AID504444", "about": "(National Center for Advancing Translational Sciences (NCATS), 2011)", "note": "About 7,500 (2.1%) of roughly 360,000 compounds were called active. This list was built around the results that the source calls inconclusive (neither active nor inactive); the mix of calls is not that of the screen. Calls come from the whole dose curve; as a rule, active = well fitted inhibition curve with a large enough effect; inconclusive = small, poorly fitted or top-dose-only effect, or effect the other way; inactive = flat fitted curve, though single readings scatter. Potencies beside an inconclusive call are fits to weak or partial responses and may not hold up. % is set by controls: 0 for no effect and ±100 for the full control effect; potency is the fitted concentration of half-maximal effect."}
{"experiment": "Nrf2 qHTS screen for inhibitors; note: nearly all actives have a fitted effect of over 60% in size", "settings": "A549 ARE-Fluc reporter, luciferase luminescence, 18-24 h; activity change, negative = inhibition: at 46 µM (top of the series)", "how_it_was_run": "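Quantitative HTS in A549 cells stably bearing an antioxidant response element-firefly luciferase construct. Inhibition of Nrf2-driven transcription was scored by luminescence after 18-24 h of compound exposure at 37 °C.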"}
{"smiles": "CC1Cc2ccccc2N1c1ncnc(N)c1[N+](=O)[O-]", "note": "(centres undefined)", "Potency": "active: 4.61 µM"}
{"smiles": "Cc1ccc2sc(N(CCCN(C)C)C(=O)c3ccc(S(=O)(=O)N4CCc5ccccc5C4)cc3)nc2c1C", "Potency": "inconclusive: 18.4 µM [falling, single point]"}
{"smiles": "O=C(NCCCn1ccnc1)/C(=C\\c1ccc(Br)cc1)NC(=O)c1ccccc1", "Potency": "inconclusive: 0.731 µM [activator, partial curve, poor fit]"}
{"smiles": "O=C(Nc1cccc(NC(=O)c2ccccc2Cl)c1)c1ccc([N+](=O)[O-])o1", "activity change, negative = inhibition": "inactive: 7.77%"}
{"smiles": "O=[N+]([O-])c1ccc(CN2CCN(c3ccccc3Cl)CC2)o1", "activity change, negative = inhibition": "inactive: -9.44%"}
{"smiles": "O=C(Cc1cccc(C(F)(F)F)c1)Nc1ccccc1N1CCCC1", "Potency": "inconclusive: 23.1 µM [falling, single point]"}
{"smiles": "Cc1nc2c3cc(Cl)ccc3n(CCN3CCCCC3)c2s1", "Potency": "inconclusive: 29.1 µM [falling, partial curve, poor fit]"}
{"smiles": "Cc1ccc(-c2noc(C3CCCN(C(=O)c4cccc(Cl)c4)C3)n2)o1", "note": "(centres undefined)", "Potency": "inconclusive: 29.1 µM [activator, single point]"}
{"smiles": "CCOC(=O)c1c(C)oc2cc(Cl)c(O)c(CN(C)C)c12", "activity change, negative = inhibition": "inactive: 4.31%"}
{"smiles": "CCn1c(SCC(=O)NCc2ccccc2)nc2nc3c(cc2c1=O)CCCC3", "Potency": "inconclusive: 20.6 µM [falling, partial curve, poor fit]"}
{"smiles": "Nc1nc(-c2ccco2)nn1C(=O)c1ccc(Cl)cc1", "Potency": "active: 7.31 µM"}
{"smiles": "COc1ccc(Nc2oc(COc3cccc(C)c3)nc2C#N)cc1", "Potency": "inconclusive: 29.1 µM [falling, single point]"}
{"smiles": "CN1CCN(C(=O)/C=C/c2ccc([N+](=O)[O-])o2)CC1", "Potency": "inconclusive: 18.4 µM [activator, single point]"}
{"smiles": "CCN(C[C@H]1N[C@@](Cc2ccccc2)(C(=O)OC)[C@H]2C(=O)N(Cc3ccccc3)C(=O)[C@@H]12)S(=O)(=O)c1ccc(C(F)(F)F)cc1", "activity change, negative = inhibition": "inactive: 8.82%"}
{"smiles": "N#Cc1ccccc1OC1=NS(=O)(=O)c2ccccc21", "activity change, negative = inhibition": "inactive: 0%"}
{"smiles": "CCN(Cc1nc2ccccc2c(=O)[nH]1)C(=O)c1cccc(NC(=O)c2cccs2)c1", "activity change, negative = inhibition": "inactive: -11.1%"}
{"smiles": "Clc1ccc(CSc2nnc(Cn3cnc4ccccc43)o2)cc1", "Potency": "active: 8.2 µM"}
{"smiles": "Cc1ccnc(NC(=O)CSc2ccc3c(c2)OCCO3)c1", "Potency": "inconclusive: 16.4 µM [activator, partial curve, poor fit]"}
{"smiles": "COc1nnc(-c2ccc(C)c(S(=O)(=O)NC(C)C)c2)c2ccccc12", "activity change, negative = inhibition": "inactive: -6.23%"}
{"smiles": "CS(=O)(=O)Nc1cccc(-c2cn3c(n2)SCC3)c1", "activity change, negative = inhibition": "inactive: 9.04%"}
{"smiles": "CC(C)Cc1nc(N2CCN(C(=O)C(C)C)CC2)c(C#N)c2c1CCC2", "Potency": "inconclusive: 23.1 µM [falling, single point]"}
{"smiles": "Cc1cccc2nc(CSc3ccccc3C(=O)O)cn12", "Potency": "inconclusive: 16.4 µM [activator, single point]"}
{"smiles": "Cc1cc2c(n1-c1ccc(C(=O)NCC(C)c3ccccc3)cc1)CCCC2", "note": "(centres undefined)", "activity change, negative = inhibition": "inactive: 14.1%"}
{"smiles": "O=C(Nc1ccccc1C(=O)O)c1ccc2ccccc2n1", "Potency": "inconclusive: 1.84 µM [activator, full curve, poor fit]"}
{"smiles": "Cc1sc(C2C(C#N)=C(N)N(c3cccc(Cl)c3)C3=C2C(=O)CCC3)cc1CN1CCOCC1", "note": "(centres undefined)", "activity change, negative = inhibition": "inactive: 24.2%"}
{"smiles": "CCn1c(C(C)NC(=O)c2ccccc2C)n[nH]c1=S", "note": "(centres undefined)", "Potency": "inconclusive: 3.26 µM [falling, full curve]"}
{"smiles": "O=S(=O)(NCc1ccc(F)cc1)c1ccc2[nH]c3c(c2c1)CCCCC3", "Potency": "inconclusive: 29.1 µM [falling, partial curve, poor fit]"}
{"smiles": "CCOC(=O)c1nc(Nc2ccc(OC)cc2)c2ccccc2n1", "Potency": "inactive"}
{"smiles": "Cc1cccc(N=Nc2c(O)[nH]c3ccc(Br)cc23)c1", "Potency": "inconclusive: 18.4 µM [activator, partial curve]"}
{"smiles": "CC1CCN(C(=S)Nc2ccc3nc4n(c(=O)c3c2)CCCCC4)CC1", "Potency": "inconclusive: 7.31 µM [falling, partial curve, poor fit]"}
{"smiles": "O=C(CSc1nnc(CNC(=O)c2ccccc2)o1)Nc1nccs1", "Potency": "inconclusive: 9.2 µM [falling, partial curve, poor fit]"}
{"smiles": "CCOC(=O)c1c(C=O)c(C)n(Cc2ccc(Cl)cc2)c1C", "Potency": "inconclusive: 29.1 µM [falling, single point]"}
{"smiles": "CCOc1ccc(/C(O)=C2/C(=O)C(=O)N(c3cc(C)on3)C2c2ccc(C(=O)OC)cc2)cc1", "note": "(centres undefined)", "Potency": "inconclusive: 29.1 µM [falling, single point]"}
{"smiles": "O=C(NCCc1nc2ccccc2n1CCCOc1ccccc1)C1CCCCC1", "Potency": "inconclusive: 32.6 µM [falling, single point]"}
{"smiles": "CC(C)NC(=S)N/N=C/C1=CCC2CC1C2(C)C", "note": "(centres undefined)", "activity change, negative = inhibition": "inactive: -13.6%"}
{"smiles": "CC(C)c1nc(CNC(=O)c2cc(COc3c(F)cccc3F)on2)cs1", "Potency": "inconclusive: 29.1 µM [falling, single point]"}
{"smiles": "CC(C)OC(=O)/C(C#N)=C/c1c[nH]c2ccccc12", "activity change, negative = inhibition": "inactive: 4.03%"}
{"smiles": "O=C(N/N=C/c1cn(Cc2ccccc2)c2ccccc12)c1ccncc1", "Potency": "inconclusive: 18.4 µM [falling, single point]"}
{"smiles": "CCCC1=C(C(=O)OCC)C(c2cc(Cl)cc(OC)c2OCC(=O)OCC)NC(=O)N1", "note": "(centres undefined)", "Potency": "inconclusive: 11.6 µM [activator, partial curve, poor fit]"}
{"smiles": "CC(=O)NNC(=O)c1sc(=S)n(C)c1C", "Potency": "inconclusive: 7.31 µM [falling, partial curve, poor fit]"}
{"smiles": "Cc1ccnc(NS(=O)(=O)c2ccc(NC(=O)Cc3c(F)cccc3Cl)cc2)n1", "Potency": "inconclusive: 23.1 µM [falling, partial curve]"}
{"smiles": "C#CCSc1nc2sc3c(c2c(=O)n1-c1cccc(OC)c1)CCN(C(C)=O)C3", "Potency": "inconclusive: 29.1 µM [falling, single point]"}
{"smiles": "COc1cccc2cc(C(C)N(CCCN3CCOCC3)C(=S)Nc3cccc(C)c3C)oc12", "note": "(centres undefined)", "Potency": "inconclusive: 20.6 µM [activator, partial curve]"}
{"smiles": "CCOC(=O)c1ccc(-c2ccc(/C=C(\\C#N)C(=O)Nc3c(C)cccc3Cl)o2)cc1", "Potency": "inconclusive: 2.59 µM [activator, full curve]"}
